# From article PMC5706888
# These are yes or no findings as the source states them, for the method shown. In cells and extracts the contact can be indirect. A yes stands for co-enrichment or nearness to the bait. Other partners may have been found. Tags and fused reporters may be left off the sequences shown.
# Biological target: T1, HA-tagged UL21 of bovine herpesvirus 1 (Bovine herpesvirus 1 (strain IBRV HB06)) (UniProt K4P3K8)
# T1 sequence: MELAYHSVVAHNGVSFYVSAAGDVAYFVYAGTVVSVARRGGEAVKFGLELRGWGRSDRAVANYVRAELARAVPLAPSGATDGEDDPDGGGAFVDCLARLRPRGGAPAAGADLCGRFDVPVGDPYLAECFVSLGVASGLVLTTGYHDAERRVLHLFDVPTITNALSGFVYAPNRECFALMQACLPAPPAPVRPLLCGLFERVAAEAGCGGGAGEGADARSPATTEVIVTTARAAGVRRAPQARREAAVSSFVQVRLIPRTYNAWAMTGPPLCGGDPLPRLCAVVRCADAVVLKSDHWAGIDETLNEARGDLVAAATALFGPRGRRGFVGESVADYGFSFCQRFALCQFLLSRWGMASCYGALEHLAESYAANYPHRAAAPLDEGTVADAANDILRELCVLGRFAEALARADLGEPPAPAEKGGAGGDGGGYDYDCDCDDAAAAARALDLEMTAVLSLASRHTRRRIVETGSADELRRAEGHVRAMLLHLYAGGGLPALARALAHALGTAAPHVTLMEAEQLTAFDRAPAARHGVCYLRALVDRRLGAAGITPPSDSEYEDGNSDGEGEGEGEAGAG
# Assay: affinity purification with mass spectrometry; lysates of MDBK cells infected with vBoHV-1-UL21-HA or wild-type BoHV-1 (MOI 3, 18 hpi) incubated with anti-HA monoclonal antibody magnetic agarose beads for 5 to 6 h at 4°C; five washes; SDS-PAGE, silver staining, excised band analysed by LC-MS
substance,measurement,value
UL16 of bovine herpesvirus 1,binding,binds
